Reference: the supplement of paper PMC6331611
± gives the standard deviation of the averaged measurements. The full ranking holds about 1,600 compounds; the median of “normalized intracellular growth (luminescence, IQM-normalized) in RAW264.7 macrophages” is about 1, and the lowest 2% start at about 0.43. This is one part of the list.

Tested on: Salmonella enterica serovar Typhimurium SL1344
Test: normalized intracellular growth (luminescence, IQM-normalized) in RAW264.7 macrophages (fraction of plate interquartile mean); higher = more bacterial growth (less inhibition)
Details: 10 µM

| SMILES | normalized intracellular growth (time point: T3 (3 h)) | normalized intracellular growth (time point: Tfinal (~6 h)) |
| --- | --- | --- |
| CCOC(=S)SSC(=S)OCC | 0.994 ± 0.036 | 0.924 ± 0.067 |
| Cc1cc2c(s1)Nc1ccccc1N=C2N1CCN(C)CC1 | 1.05 ± 0.088 | 0.959 ± 0.12 |
| Cc1cc(O)cc(C)c1Cl | 1.03 ± 0.075 | 1.11 ± 0.071 |
| CC(=O)N(c1onc(C)c1C)S(=O)(=O)c1ccc(N)cc1 | 0.951 ± 0.011 | 1.02 ± 0.17 |
| Oc1cccc(O)c1 | 0.998 ± 0.086 | 0.855 ± 0.22 |
| CC(N)CCCC(C)(C)O (stereo unspecified) | 0.974 ± 0.033 | 0.988 ± 0.22 |
| CN1CCCN=C1/C=C/c1cccc(O)c1 | 1.08 ± 0.061 | 0.78 ± 0.1 |
| C/C(=C\C(=O)OCCCCCCCCC(=O)O)C[C@@H]1OC[C@H](C[C@@H]2O[C@H]2[C@@H](C)[C@H](C)O)[C@@H](O)[C@H]1O | 1.001 ± 0.0097 | 1.1 ± 0.11 |
| CN/C(=N\CCSCc1nc[nH]c1C)NC#N | 0.964 ± 0.044 | 1.03 ± 0.13 |
| CC1/C=C/C=C/C=C/C=C/C=C/C=C/C=C/C(OC2O[C@H](C)[C@@H](O)[C@H](N)[C@@H]2O)CC(O)C(C(=O)O)C(O)CC(=O)CC(O)CC(O)CC(O)CC(=O)CCCC(=O)CC(=O)OC1C(C)CC(C)C(O)CC(=O)c1ccc(N)cc1 (stereo partly specified) | 1.02 ± 0.031 | 0.811 ± 0.12 |
| O=c1oc2cc(O)ccc2s1 | 1.02 ± 0.058 | 0.887 ± 0.16 |
| CCOc1ccc2nc(S(N)(=O)=O)sc2c1 | 1.13 ± 0.13 | 1.25 ± 0.092 |
| C=C[C@H]1CN2CC[C@H]1C[C@H]2[C@H](O)c1ccnc2ccc(OC)cc12 | 0.978 ± 0.042 | 0.953 ± 0.058 |
| CC1(C)S[C@@H]2[C@H](NC(=O)[C@H](N)c3ccccc3)C(=O)N2[C@H]1C(=O)O | 1.01 ± 0.043 | 0.903 ± 0.052 |
| O=c1n(CCCN2CCN(c3cccc(Cl)c3)CC2)nc2ccccn12 | 1.13 ± 0.13 | 1.36 ± 0.22 |
| CC(=O)NCCCCCC(=O)O | 0.997 ± 0.019 | 1.02 ± 0.17 |
| O=C(O)c1cc(=O)[nH]c(=O)[nH]1 | 0.953 ± 0.054 | 0.959 ± 0.14 |
| C[C@]12CCC(=O)C=C1[C@@H]1C[C@@H]1[C@H]1[C@@H]3[C@@H]4C[C@@H]4[C@@]4(CCC(=O)O4)[C@@]3(C)CC[C@@H]12 | 0.9497 ± 0.0089 | 0.981 ± 0.18 |
| Nc1cc(N2CCCCC2)nc(N)[n+]1[O-] | 1.03 ± 0.079 | 0.827 ± 0.02 |

Nothing new here: entries from further up.

| SMILES | normalized intracellular growth (time point: T3 (3 h)) | normalized intracellular growth (time point: Tfinal (~6 h)) |
| --- | --- | --- |
| CC1/C=C/C=C/C=C/C=C/C=C/C=C/C=C/C(OC2O[C@H](C)[C@@H](O)[C@H](N)[C@@H]2O)CC(O)C(C(=O)O)C(O)CC(=O)CC(O)CC(O)CC(O)CC(=O)CCCC(=O)CC(=O)OC1C(C)CC(C)C(O)CC(=O)c1ccc(N)cc1 (stereo partly specified) | 1.02 ± 0.031 | 0.811 ± 0.12 |
| O=c1oc2cc(O)ccc2s1 | 1.02 ± 0.058 | 0.887 ± 0.16 |

Next part

| SMILES | normalized intracellular growth (time point: T3 (3 h)) | normalized intracellular growth (time point: Tfinal (~6 h)) |
| --- | --- | --- |
| O=C(O)c1ccccc1OP(=O)(O)O | 0.948 ± 0.031 | 1.06 ± 0.088 |
| C/C=C(/C(=C/C)c1ccc(O)cc1)c1ccc(O)cc1 | 1.02 ± 0.045 | 1.1 ± 0.051 |
| Cc1ncc([N+](=O)[O-])n1CC(C)O (stereo unspecified) | 1.09 ± 0.064 | 1.04 ± 0.18 |
| CC1=C(/C=C/C(C)=C/C=C/C(C)=C/CO)C(C)(C)CCC1 | 0.817 ± 0.0092 | 0.92 ± 0.058 |
| CC(=O)O[C@H]1C(=O)[C@@]2(C)[C@H]([C@H](OC(=O)c3ccccc3)[C@]3(O)C[C@H](OC(=O)[C@H](O)[C@@H](NC(=O)c4ccccc4)c4ccccc4)C(C)=C1C3(C)C)[C@]1(OC(C)=O)CO[C@@H]1C[C@@H]2O | 1.01 ± 0.019 | 1.14 ± 0.18 |
| CCCN(CCC)CCc1cccc2c1CC(=O)N2 | 0.992 ± 0.072 | 1.11 ± 0.28 |
| O[C@H]1[C@H](O)[C@@H](O)[C@H](O)[C@@H](O)[C@H]1O | 1.03 ± 0.069 | 0.958 ± 0.043 |
| COc1cccc2c1C(=O)c1c(O)c3c(c(O)c1C2=O)C[C@@](O)(C(=O)CO)C[C@@H]3O[C@H]1C[C@H](N)[C@@H](O)[C@H](C)O1 | 0.93 ± 0.027 | 0.612 ± 0.21 |
| Cc1nc2ccccn2c(=O)c1CCN1CCC(C(=O)c2ccc(F)cc2)CC1 | 1.08 ± 0.03 | 1.13 ± 0.051 |
| O=C(CCNNC(=O)c1ccncc1)NCc1ccccc1 | 1.08 ± 0.084 | 0.856 ± 0.1 |
| NC(=O)c1cnccn1 | 1.07 ± 0.013 | 1.14 ± 0.083 |
| CC(C)(C)CC(C)(C)c1cc(Cc2cc(C(C)(C)CC(C)(C)C)cc(-n3nc4ccccc4n3)c2O)c(O)c(-n2nc3ccccc3n2)c1 | 1.02 ± 0.096 | 1.19 ± 0.3 |
| C[C@@H](O)[C@H]1C(=O)N2C(C(=O)O)=C(S[C@@H]3CN[C@H](C(=O)N(C)C)C3)[C@H](C)[C@H]12 | 0.957 ± 0.043 | 0.98 ± 0.062 |
| Cc1cc(C)cc(OCC2CNC(=O)O2)c1 (stereo unspecified) | 1.04 ± 0.012 | 1.14 ± 0.039 |
| CC(=O)O[C@H]1C[C@@H]2CC[C@@H]3[C@H](CC[C@@]4(C)[C@H]3C[C@H]([N+]3(C)CCCCC3)[C@@H]4OC(C)=O)[C@@]2(C)C[C@@H]1N1CCCCC1 | 0.918 ± 0.046 | 0.631 ± 0.23 |
| C[C@]12C=CC(=O)C=C1CC[C@H]1[C@@H]3C[C@@H](O)[C@](O)(C(=O)CO)[C@@]3(C)C[C@H](O)[C@@]12F | 0.79 ± 0.046 | 1.28 ± 0.072 |
| CCN(CC)C(=O)/C(C#N)=C/c1cc(O)c(O)c([N+](=O)[O-])c1 | 1.03 ± 0.044 | 1.12 ± 0.092 |
| C[C@@H]1O[C@@H](OC[C@H]2O[C@@H](Oc3c(-c4ccc(OCCO)c(OCCO)c4)oc4cc(OCCO)cc(O)c4c3=O)[C@H](O)[C@@H](O)[C@@H]2O)[C@H](O)[C@H](O)[C@H]1O | 0.951 ± 0.034 | 0.746 ± 0.24 |
| OC(c1cc(C(F)(F)F)nc2c(C(F)(F)F)cccc12)C1CCCCN1 (stereo unspecified) | 0.943 ± 0.027 | 1.04 ± 0.026 |
